Experimental data: paper PMC11380446
Results are given in words; binding and its absence hold for the method and conditions named. In cells and extracts the contact can be indirect. Some binding calls cover weakened binding; strength is not graded here. Each block holds one substance with its values, some of them ahead of it.

Protein sequences, listed by entry. Tags and fused reporters are not part of them.
UniProt P13010: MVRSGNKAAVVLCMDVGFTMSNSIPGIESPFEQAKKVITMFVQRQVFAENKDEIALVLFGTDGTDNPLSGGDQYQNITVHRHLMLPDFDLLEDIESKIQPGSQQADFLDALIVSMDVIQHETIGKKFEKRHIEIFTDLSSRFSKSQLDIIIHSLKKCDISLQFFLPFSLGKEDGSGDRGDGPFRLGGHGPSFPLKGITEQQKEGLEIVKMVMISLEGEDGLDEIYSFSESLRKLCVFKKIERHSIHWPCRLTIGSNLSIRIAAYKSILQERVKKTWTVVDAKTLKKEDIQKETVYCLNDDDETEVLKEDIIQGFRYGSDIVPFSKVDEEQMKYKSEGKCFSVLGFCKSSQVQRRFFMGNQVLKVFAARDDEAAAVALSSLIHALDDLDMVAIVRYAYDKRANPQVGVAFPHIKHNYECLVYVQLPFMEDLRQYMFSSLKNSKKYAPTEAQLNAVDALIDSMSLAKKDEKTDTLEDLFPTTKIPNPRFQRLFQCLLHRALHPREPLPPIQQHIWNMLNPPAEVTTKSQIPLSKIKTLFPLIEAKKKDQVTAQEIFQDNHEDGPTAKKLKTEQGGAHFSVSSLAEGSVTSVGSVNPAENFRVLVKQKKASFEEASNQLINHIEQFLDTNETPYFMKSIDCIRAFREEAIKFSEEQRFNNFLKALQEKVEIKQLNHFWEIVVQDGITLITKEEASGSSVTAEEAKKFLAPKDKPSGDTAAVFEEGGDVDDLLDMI
UniProt P09874: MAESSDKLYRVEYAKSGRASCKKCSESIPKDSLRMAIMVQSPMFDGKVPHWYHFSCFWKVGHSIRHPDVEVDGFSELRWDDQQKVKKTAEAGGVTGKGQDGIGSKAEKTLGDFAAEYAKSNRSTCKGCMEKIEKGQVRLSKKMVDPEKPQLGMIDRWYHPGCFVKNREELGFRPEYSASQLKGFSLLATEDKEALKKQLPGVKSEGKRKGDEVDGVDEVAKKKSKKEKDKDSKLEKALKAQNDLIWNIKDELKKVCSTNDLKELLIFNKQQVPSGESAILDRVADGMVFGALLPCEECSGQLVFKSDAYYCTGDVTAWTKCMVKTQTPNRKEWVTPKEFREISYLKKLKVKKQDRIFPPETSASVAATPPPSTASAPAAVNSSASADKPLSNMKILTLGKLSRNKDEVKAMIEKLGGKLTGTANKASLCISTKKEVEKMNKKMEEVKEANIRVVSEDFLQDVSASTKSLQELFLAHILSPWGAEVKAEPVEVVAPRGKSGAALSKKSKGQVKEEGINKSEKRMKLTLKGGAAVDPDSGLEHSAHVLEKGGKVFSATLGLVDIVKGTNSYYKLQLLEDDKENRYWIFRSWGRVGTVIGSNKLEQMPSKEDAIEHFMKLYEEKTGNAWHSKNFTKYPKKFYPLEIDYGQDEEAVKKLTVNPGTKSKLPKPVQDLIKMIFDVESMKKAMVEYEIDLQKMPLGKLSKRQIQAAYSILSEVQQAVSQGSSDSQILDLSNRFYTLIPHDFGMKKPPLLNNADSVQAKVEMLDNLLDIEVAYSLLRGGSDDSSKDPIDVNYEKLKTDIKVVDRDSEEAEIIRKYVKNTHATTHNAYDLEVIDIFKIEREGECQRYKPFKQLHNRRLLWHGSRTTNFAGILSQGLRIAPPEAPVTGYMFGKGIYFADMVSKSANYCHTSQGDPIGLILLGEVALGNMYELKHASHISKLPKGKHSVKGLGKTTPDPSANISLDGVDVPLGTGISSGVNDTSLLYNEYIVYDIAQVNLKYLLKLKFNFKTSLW

Columns and labels:
[1] = biological target: full-length Ku80, 3×FLAG-tagged (UniProt P13010); experiment: co-IP; HEK293T cells transfected with 3×FLAG-tagged Ku80 constructs for 48 h; FLAG Co-IP, IB for PARP1
[2] = biological target: PARP1 (human (endogenous in SKOV3)) (UniProt P09874); experiment: co-IP; endogenous proteins; SKOV3 (for Ku80-XLF-APLF also OVCAR3) lysed in IP lysis buffer, IgG or 1-4 μg IP antibody overnight at 4 °C, protein A/G magnetic beads 2 h at 4 °C, washed with PBST, IB; cells untreated or treated with DMSO, CDK12i 50 nM, Olaparib 10 μM or both for 2 days; also 0.01% MMS 1 h or 80 μM CCCP 2 h
[3] = biological target: recombinant 6×His-PARP1 protein (UniProt P09874); experiment: pull-down; recombinant 6×His-PARP1 (2 μg per sample) incubated overnight with lysates of HEK293T cells transfected with FLAG-Ku80 constructs; His tag-conjugated beads 2 h at 4 °C, washed three times; only the target purified
[4] = biological target: Ku80 (human (endogenous in SKOV3)) (UniProt P13010); experiment: co-IP; endogenous proteins; SKOV3 (for Ku80-XLF-APLF also OVCAR3) lysed in IP lysis buffer, IgG or 1-4 μg IP antibody overnight at 4 °C, protein A/G magnetic beads 2 h at 4 °C, washed with PBST, IB; cells untreated or treated with DMSO, CDK12i 50 nM, Olaparib 10 μM or both for 2 days; also 0.01% MMS 1 h or 80 μM CCCP 2 h

- binding [1]: binds
Substance: PARP1 (in HEK293T cells) (from UniProt P09874 1-1014)

- binding [2]: binds
Substance: Ku80 (from UniProt P13010 1-732)

- binding [3]: binds
Substance: full-length Ku80, 3×FLAG-tagged (from UniProt P13010 1-732)

- binding [4]: binds
Substance: PARP1 (from UniProt P09874 1-1014)
